Patent publication US20090220534A1, “METHODS FOR IDENTIFYING T-CELL EPITOPES ASSOCIATED WITH IMPAIRED PEPTIDE PROCESSING AND APPLICATIONS OF THE IDENTIFIED EPITOPES” (Leiden University Medical Center, priority 2006, published 2009)
These are yes or no findings as the source states them, for the method shown. Some results given as binding are weak or reduced against the parent protein; the word gives no strength.

Chains of the proteins cited; added tags and fusions are not shown. Residues count along the entry.
UniProt P01899, residues 25-309: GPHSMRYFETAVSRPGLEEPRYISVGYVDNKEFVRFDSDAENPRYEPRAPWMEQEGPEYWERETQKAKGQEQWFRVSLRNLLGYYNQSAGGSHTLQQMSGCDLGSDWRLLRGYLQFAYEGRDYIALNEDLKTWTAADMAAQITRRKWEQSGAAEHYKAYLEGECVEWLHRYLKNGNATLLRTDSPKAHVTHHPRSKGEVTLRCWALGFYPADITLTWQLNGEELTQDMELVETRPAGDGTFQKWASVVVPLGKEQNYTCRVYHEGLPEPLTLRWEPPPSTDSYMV

Legend:
[1] = molecular target: H-2D^b MHC class I molecule (mouse) (UniProt P01899); test: peptides eluted from immunoaffinity purified Db of RMA-S cells, HPLC, tandem MS
[2] = molecular target: H-2D^b MHC class I molecule (mouse) (UniProt P01899); test: peptides eluted from purified Db of RMA-S cells, HPLC, tandem MS

binding [1]: binds
binding [2]: binds
B1: … (Trh4 derived TEIPP D^b peptide, C-terminus of the protein of the long Trh4 transcript) (peptide)
peptide: MCLRMTAVM
